Data as given in paper PMC11933829.
Construct, isoform or probe ends are uncertain for at least one entry.

System: GST-OsMYB73 (Oryza sativa (rice))
Test: EMSA
Settings: EMSA kit with 5'-biotin probes; recombinant protein; protein details: GST; label: 5' biotin

Sequence	binding result
CTTACTGGTAGGTGACATGC (double strand) [OsNF-YB1 probe 2]	binds
GTATAGACCGTTAAGGATAG (double strand) [OsYUC11 probe 3]	binds
TCCCCACCCTACGCGGCCCT (double strand) [OsISA2 probe 1]	binds
TTTTAAGTAGGTATAGATGT (double strand) [OsLTPL36 probe 4]	binds
